Laboratory results from the supplement of paper PMC6411743.
± gives the standard deviation of the averaged measurements. This is a selection; strong and weak results do not stand in their true shares. Most values lie at the level of the controls, where differences are scatter.

By UniProt entry, the sequences of proteins in these tests, tags left out. Where a name states a change or a piece, a line headed by the entry shows the natural chain unless it says otherwise.
UniProt O14828: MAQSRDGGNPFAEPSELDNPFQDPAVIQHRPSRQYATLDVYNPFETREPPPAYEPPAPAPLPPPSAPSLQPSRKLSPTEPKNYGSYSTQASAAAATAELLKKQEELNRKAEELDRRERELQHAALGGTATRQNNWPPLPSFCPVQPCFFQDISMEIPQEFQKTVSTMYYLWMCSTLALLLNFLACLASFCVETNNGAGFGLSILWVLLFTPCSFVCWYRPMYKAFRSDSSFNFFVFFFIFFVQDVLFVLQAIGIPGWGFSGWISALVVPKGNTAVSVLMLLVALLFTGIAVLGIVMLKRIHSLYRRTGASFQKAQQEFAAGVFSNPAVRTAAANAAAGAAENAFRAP
UniProt O15116: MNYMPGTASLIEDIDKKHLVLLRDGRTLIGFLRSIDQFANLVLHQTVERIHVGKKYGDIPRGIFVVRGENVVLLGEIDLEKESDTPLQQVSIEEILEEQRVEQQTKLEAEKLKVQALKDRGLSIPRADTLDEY
UniProt O00462: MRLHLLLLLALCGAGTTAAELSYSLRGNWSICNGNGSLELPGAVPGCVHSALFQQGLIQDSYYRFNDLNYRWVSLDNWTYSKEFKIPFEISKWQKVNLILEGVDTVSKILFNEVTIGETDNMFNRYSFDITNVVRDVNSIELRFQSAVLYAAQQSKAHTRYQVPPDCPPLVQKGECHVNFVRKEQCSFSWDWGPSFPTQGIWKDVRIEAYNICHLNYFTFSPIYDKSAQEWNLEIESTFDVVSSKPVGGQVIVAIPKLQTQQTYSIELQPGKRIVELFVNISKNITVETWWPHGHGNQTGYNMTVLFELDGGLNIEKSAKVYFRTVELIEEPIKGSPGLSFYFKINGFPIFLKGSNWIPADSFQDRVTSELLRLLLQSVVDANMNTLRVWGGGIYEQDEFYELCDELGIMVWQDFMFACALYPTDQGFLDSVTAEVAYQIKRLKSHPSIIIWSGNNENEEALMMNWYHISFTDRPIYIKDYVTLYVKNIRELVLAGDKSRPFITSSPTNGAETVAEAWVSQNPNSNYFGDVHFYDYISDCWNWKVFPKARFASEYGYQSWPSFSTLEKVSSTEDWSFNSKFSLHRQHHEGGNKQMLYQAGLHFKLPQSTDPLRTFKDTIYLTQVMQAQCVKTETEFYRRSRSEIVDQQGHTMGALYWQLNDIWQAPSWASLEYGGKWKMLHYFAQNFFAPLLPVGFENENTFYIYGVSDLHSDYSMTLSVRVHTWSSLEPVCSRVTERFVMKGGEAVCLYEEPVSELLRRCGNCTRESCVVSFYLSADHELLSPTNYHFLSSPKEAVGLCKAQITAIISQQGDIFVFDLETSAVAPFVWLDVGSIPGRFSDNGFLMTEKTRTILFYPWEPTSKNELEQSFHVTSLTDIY
UniProt O14974: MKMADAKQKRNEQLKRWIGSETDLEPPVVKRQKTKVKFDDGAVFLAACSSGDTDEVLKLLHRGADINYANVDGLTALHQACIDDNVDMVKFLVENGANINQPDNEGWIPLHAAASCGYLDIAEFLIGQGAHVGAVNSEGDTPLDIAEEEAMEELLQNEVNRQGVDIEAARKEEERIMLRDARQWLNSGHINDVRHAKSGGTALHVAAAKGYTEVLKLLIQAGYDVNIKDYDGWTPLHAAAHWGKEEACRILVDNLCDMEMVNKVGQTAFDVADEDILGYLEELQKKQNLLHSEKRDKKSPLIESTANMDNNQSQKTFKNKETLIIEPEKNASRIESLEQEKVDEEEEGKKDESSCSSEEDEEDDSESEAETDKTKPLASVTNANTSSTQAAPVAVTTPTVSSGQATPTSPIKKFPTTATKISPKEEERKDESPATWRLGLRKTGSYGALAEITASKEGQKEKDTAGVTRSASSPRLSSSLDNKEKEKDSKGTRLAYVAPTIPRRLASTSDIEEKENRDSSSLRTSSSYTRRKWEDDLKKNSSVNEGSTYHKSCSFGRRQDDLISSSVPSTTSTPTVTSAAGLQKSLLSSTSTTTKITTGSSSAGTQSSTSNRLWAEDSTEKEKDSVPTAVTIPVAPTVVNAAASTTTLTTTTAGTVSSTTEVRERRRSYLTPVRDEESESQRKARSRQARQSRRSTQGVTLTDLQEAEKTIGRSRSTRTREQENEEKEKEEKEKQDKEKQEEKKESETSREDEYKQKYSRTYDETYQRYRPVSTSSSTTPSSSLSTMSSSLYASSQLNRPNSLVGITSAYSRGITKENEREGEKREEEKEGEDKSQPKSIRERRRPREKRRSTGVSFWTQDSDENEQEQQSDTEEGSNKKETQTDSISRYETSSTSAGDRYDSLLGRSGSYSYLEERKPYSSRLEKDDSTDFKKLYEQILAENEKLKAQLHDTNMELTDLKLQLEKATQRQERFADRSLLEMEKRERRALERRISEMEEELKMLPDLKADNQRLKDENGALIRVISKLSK
UniProt O00487, whole entry: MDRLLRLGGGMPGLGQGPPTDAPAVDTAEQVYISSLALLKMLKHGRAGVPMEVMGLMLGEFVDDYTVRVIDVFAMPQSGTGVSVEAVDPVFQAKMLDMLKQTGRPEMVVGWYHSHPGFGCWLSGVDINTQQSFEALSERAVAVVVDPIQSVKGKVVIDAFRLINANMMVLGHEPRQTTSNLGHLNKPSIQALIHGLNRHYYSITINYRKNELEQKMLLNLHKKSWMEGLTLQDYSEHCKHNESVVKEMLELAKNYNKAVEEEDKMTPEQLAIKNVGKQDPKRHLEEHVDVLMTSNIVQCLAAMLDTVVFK
UniProt O00329: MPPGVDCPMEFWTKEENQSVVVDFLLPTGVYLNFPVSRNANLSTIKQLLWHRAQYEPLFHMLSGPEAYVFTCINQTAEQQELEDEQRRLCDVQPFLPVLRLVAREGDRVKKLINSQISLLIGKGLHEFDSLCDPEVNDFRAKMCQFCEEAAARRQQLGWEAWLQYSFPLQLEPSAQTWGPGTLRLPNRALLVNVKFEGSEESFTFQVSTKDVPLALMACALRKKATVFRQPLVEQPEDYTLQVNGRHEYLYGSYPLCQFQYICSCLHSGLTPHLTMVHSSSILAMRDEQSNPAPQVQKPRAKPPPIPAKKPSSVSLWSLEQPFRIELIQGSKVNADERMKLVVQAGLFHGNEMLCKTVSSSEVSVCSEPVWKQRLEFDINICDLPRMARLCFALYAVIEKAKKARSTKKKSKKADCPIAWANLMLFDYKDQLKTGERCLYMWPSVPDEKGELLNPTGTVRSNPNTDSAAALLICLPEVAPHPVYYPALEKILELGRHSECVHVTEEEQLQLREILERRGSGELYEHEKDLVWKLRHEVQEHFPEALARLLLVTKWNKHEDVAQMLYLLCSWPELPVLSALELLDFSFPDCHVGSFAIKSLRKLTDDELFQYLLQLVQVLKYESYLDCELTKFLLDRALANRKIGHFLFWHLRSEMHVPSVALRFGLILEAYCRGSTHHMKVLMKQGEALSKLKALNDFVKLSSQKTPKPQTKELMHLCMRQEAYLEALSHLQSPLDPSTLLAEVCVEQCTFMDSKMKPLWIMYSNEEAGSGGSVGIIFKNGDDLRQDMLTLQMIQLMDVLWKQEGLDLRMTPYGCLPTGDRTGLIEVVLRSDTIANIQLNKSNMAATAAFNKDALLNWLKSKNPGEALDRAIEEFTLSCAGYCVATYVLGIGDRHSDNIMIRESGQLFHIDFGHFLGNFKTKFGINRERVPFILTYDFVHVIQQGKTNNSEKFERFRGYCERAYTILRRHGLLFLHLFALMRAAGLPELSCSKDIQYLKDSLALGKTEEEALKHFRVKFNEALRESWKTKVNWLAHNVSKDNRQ
UniProt O00762: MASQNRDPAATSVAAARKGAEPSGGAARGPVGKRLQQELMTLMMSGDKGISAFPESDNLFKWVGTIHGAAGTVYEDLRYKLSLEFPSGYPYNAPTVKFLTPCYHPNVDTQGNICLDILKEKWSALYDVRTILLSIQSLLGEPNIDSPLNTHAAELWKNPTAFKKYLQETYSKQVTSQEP
UniProt O14929: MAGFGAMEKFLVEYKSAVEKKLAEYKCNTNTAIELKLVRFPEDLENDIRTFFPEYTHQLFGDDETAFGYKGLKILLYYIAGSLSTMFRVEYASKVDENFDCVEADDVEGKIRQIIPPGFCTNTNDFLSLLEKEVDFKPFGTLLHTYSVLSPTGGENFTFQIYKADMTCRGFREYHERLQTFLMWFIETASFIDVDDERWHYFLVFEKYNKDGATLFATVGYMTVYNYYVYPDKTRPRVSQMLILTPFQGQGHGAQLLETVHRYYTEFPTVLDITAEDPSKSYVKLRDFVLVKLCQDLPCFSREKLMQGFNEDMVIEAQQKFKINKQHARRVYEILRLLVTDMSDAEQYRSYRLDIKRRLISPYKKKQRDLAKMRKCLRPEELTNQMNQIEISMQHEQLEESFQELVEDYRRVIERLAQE
UniProt O14773: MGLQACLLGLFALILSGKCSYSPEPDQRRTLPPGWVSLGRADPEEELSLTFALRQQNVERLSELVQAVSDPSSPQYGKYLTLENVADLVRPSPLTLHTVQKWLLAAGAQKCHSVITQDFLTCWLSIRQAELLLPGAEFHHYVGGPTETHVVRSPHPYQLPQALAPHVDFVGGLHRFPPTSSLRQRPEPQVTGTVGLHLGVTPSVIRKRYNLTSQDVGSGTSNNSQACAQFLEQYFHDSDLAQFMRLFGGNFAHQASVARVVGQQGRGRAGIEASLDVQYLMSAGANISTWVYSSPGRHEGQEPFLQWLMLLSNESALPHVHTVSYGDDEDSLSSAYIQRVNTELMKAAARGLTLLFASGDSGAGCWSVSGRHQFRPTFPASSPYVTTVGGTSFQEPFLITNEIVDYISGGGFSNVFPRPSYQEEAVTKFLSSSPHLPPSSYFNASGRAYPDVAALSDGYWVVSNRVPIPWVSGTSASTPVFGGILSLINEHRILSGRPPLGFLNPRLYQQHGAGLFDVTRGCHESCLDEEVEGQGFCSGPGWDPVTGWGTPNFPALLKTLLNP
UniProt O00560: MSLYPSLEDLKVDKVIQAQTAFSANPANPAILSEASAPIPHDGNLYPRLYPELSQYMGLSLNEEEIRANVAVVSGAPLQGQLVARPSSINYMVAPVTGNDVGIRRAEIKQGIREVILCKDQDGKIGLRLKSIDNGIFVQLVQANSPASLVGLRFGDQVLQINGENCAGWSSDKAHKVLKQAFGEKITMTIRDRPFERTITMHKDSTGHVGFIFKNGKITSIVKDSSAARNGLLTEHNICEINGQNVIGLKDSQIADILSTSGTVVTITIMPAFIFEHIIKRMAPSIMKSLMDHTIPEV
UniProt O14802: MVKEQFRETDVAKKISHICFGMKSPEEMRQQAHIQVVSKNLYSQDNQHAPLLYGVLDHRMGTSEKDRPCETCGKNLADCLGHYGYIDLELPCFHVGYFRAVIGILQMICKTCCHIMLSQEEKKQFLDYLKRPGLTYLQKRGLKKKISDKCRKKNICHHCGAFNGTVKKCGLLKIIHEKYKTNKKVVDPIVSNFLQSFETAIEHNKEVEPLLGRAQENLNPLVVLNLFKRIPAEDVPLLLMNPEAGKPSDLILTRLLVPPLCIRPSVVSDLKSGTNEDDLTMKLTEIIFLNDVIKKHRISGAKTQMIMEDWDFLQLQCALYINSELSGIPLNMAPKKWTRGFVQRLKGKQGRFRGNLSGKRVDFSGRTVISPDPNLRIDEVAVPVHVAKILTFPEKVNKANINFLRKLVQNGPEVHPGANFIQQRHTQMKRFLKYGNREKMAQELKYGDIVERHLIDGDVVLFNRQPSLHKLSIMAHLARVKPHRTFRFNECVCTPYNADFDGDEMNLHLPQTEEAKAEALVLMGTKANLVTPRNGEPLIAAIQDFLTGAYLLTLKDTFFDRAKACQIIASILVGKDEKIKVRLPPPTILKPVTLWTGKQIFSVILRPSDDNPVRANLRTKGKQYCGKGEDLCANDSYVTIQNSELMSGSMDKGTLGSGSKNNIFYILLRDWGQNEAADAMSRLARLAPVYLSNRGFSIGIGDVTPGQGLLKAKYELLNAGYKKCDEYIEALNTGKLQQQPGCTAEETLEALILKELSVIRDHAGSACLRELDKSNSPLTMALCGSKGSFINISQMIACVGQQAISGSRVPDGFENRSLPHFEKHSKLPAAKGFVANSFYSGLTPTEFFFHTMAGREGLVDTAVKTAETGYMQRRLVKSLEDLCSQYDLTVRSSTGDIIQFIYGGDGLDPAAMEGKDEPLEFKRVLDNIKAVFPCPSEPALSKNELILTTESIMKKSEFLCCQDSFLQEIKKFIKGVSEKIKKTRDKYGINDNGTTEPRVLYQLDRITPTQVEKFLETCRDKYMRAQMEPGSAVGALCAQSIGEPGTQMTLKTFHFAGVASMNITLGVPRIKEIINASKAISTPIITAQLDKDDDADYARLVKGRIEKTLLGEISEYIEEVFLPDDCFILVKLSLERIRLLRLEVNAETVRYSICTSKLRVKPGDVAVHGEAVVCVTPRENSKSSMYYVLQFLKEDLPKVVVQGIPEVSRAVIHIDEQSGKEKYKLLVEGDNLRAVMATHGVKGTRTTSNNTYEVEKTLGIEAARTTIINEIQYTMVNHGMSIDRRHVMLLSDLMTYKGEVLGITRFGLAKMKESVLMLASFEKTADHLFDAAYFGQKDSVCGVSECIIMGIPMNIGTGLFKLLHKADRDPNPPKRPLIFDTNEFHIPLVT

Compound: Nc1ncnc2c1ncn2[C@@H]1O[C@H](COP(=O)(O)OP(=O)(O)NP(=O)(O)O)[C@@H](O)[C@H]1O [adenylyl imidodiphosphate]
Assay: NP40-soluble protein abundance relative to vehicle (solubility fold change) (ratio); higher = more soluble protein in presence of AMP-PNP
Outline: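 Each value is a fold change relative to the detergent-processed vehicle, calculated per replicate from vsn-normalised intensities. Jurkat crude lysate received eight concentrations (0.1 to 10 mM) for 10 min at room temperature and 3 min at 37 °C, then was solubilised in 0.8% NP40 with benzonase (60 min, 4 °C). The ultracentrifuged supernatant was TMT-labelled and run by LC-MS/MS in three independent experiments.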

Target	NP40-soluble protein abundance (concentration: 0.1mM)	NP40-soluble protein abundance (concentration: 0.5mM)
UniProt O15091	0.984 ± 0.014	0.964 ± 0.039
UniProt O43665 and related entries	0.963 ± 0.042	1.01 ± 0.043
GTPBP1 (UniProt O00178)	0.973 ± 0.015	1.01 ± 0.016
HMGN4 (UniProt O00479)	0.9915 ± 0.0033	1.02 ± 0.022
PLRG1 (UniProt O43660)	0.993 ± 0.0041	1.03 ± 0.034
UniProt O43524 and related entries	1.02 ± 0.035	0.9991 ± 0.0026
UniProt O15014 and related entries	0.997 ± 0.083	1 ± 0.049
ARPC2 (UniProt O15144)	1.017 ± 0.0072	1.02 ± 0.065
SCAMP3 (UniProt O14828)	1.01 ± 0.018	1.03 ± 0.056
LSM1 (UniProt O15116)	0.972 ± 0.037	0.954 ± 0.034
UniProt O14920	1.02 ± 0.017	1.01 ± 0.024
UniProt O00462 and related entries	1.01 ± 0.013	1.02 ± 0.027
PGRMC1 (UniProt O00264)	1.03 ± 0.048	1.03 ± 0.046
UniProt O14974 and related entries	0.9946 ± 0.0094	1.02 ± 0.047
UniProt O00148	1.03 ± 0.068	0.972 ± 0.062
NDC80 (UniProt O14777)	0.987 ± 0.01	0.984 ± 0.012
UniProt O15400 and related entries	0.96 ± 0.036	1 ± 0.035
EEF2K (UniProt O00418)	0.991 ± 0.032	0.9763 ± 0.0054
CLIC1 (UniProt O00299)	1 ± 0.015	1.03 ± 0.028
DCTN6 (UniProt O00399)	1 ± 0.086	1.01 ± 0.032
UniProt O15226 and related entries	1.01 ± 0.021	1.02 ± 0.024
WASL (UniProt O00401)	0.9955 ± 0.0037	0.9895 ± 0.0082
UniProt O00487	1.01 ± 0.011	0.96 ± 0.051
PIK3CD (UniProt O00329)	1.01 ± 0.036	0.969 ± 0.039
UniProt O43291	0.987 ± 0.016	1.01 ± 0.013
M0R0Z3 and related entries (UniProt P35269)	0.974 ± 0.024	1.04 ± 0.07

Full records, quoted from the list:
ARPC2 (UniProt O15144) as listed: NP40-soluble protein abundance (concentration: 0.1mM): 1.017 ± 0.0072; NP40-soluble protein abundance (concentration: 0.5mM): 1.02 ± 0.065
PLRG1 (UniProt O43660) as listed: NP40-soluble protein abundance (concentration: 0.1mM): 0.993 ± 0.0041; NP40-soluble protein abundance (concentration: 0.5mM): 1.03 ± 0.034
UniProt O15400 and related entries as listed: NP40-soluble protein abundance (concentration: 0.1mM): 0.96 ± 0.036; NP40-soluble protein abundance (concentration: 0.5mM): 1 ± 0.035

Carrying on:

Target	NP40-soluble protein abundance (concentration: 0.1mM)	NP40-soluble protein abundance (concentration: 0.5mM)
UniProt O00762 and related entries	1.02 ± 0.02	1.02 ± 0.029
UniProt O43747 and related entries	0.99 ± 0.034	1 ± 0.092
M0R2B7 and related entries (UniProt P28340)	1.01 ± 0.034	0.972 ± 0.068
SYNJ2 (UniProt O15056)	0.9582 ± 0.0082	0.955 ± 0.011
SCAMP2 (UniProt O15127)	0.9683 ± 0.0016	0.99 ± 0.011
UniProt O15439 and related entries	0.994 ± 0.01	0.964 ± 0.027
SPTLC2 (UniProt O15270)	1 ± 0.033	1.02 ± 0.058
UniProt O14818 and related entries	0.971 ± 0.011	0.997 ± 0.013
PIK3C2A (UniProt O00443)	1 ± 0.051	1 ± 0.017
PSMD12 (UniProt O00232)	1.01 ± 0.029	0.991 ± 0.04
UniProt O14975 and related entries	1 ± 0.049	0.998 ± 0.075
UniProt O00592 and related entries	0.966 ± 0.027	0.993 ± 0.018
HAT1 (UniProt O14929)	1.05 ± 0.048	1 ± 0.075
UniProt O14773 and related entries	1.04 ± 0.024	1.01 ± 0.043
UniProt O00291 and related entries	1.03 ± 0.012	1 ± 0.031
UniProt O14686 and related entries	1.04 ± 0.043	0.984 ± 0.064
UniProt O43422	0.986 ± 0.016	0.988 ± 0.015
K7ESQ0 and related entries (UniProt Q9H6Z4)	0.995 ± 0.02	0.991 ± 0.031
UniProt O00560 and related entries	0.988 ± 0.042	0.983 ± 0.044
STXBP3 (UniProt O00186)	0.987 ± 0.038	1.01 ± 0.04
OPLAH (UniProt O14841)	1 ± 0.024	0.975 ± 0.044
PIK3R2 (UniProt O00459)	0.975 ± 0.042	0.971 ± 0.048
STRN (UniProt O43815)	1.01 ± 0.038	0.986 ± 0.06
POLRMT (UniProt O00411)	1 ± 0.067	0.967 ± 0.02
POLR3A (UniProt O14802)	1.02 ± 0.035	0.975 ± 0.06
UniProt O43736 and related entries	1.03 ± 0.088	1 ± 0.085
